Assay results reported in patent publication US20240279313A1, “BARRIER FUNCTION PRESERVING PEPTIDES FOR MEMBRANES” (priority 2021, published 2024).
Not every detail of the peptide structures is certain; ends, links or a residue may be inferred. Ends that are not written are not given here.

Experiment: SAXS, suppression of H4n-induced cubic phases (NGC)
[1] = H4n P/L 1/40 + test peptide P/L 1/50
[2] = H4n P/L 1/40 + test peptide P/L 1/100

## GDAVREWFEKAWQRVREFF [AP1, G-D-A-V-R-E-W-F-E-K-A-W-Q-R-V-R-E-F-F]
H4n P/L 1/40 + test peptide P/L 1/25
  Cubic phases present: *Empty cells indicate the absence of cubic phases.
[1]
  <K> (NGC) of Pn3m cubic phase: <K> = −2.39E−2 nm^−2
  Lattice parameter of Pn3m cubic phase: Pn3m (α = 16.5 nm)
[2]
  <K> (NGC) of Pn3m cubic phase: <K> = −2.11E−2 nm^−2
  Lattice parameter of Pn3m cubic phase: Pn3m (α = 17.6 nm)
H4n P/L 1/40, test peptide P/L varied
  Effect on H4n-induced Pn3m QII phases: suppressed at high concentrations
